Measured values reported in PubChem BioAssay AID493014 (National Center for Advancing Translational Sciences (NCATS), 2011).
The list shows a part of the results. Further columns of the screen follow, without active or inactive calls. Most of these compounds were active or inconclusive in the main read-out, so they are no random draw. Words in brackets tell the shape of the fitted curve; partial curves, single points and poor fits give uncertain potencies.

Experiment: qHTS Assay to Find Inhibitors of Chronic Active B-Cell Receptor Signaling
Details: ABC-DLBCL IkBa-CBG/CBR reporter, luminescence ratio (green luciferase fused to IkBa over red control in TMD8 lymphoma cells), 4 h
Summary of the method: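 TMD8 ABC-DLBCL cells carrying doxycycline-inducible green luciferase fused to IkappaBalpha plus unfused red luciferase were exposed to compounds (up to 46 uM) for 4 hrs at 37C. Activity came from the overlap-corrected green/red luminescence ratio.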

[1] = measured here: CBR red luminescence, cell number
[2] = measured here: IkBa-CBG green luminescence

Structure (SMILES)	AC50 [1]	AC50 [2]
COc1ccc(NC(=O)N2CCc3ccccc3C2)c(OC)c1	7.08 µM [falling, partial curve]	–
CC(Sc1nnc(-c2cccnc2)n1C)C(=O)N1CCOCC1 (configuration not stated)	0.259 µM [rising, full curve, poor fit]	–
COc1ccc2c(c1OC)C(=O)N1N=C(c3ccc(F)cc3)CC21 (configuration not stated)	11.2 µM [falling, partial curve]	–
CCc1ccc(C(=O)CN2C(=O)NC(C)(c3ccc(C)cc3)C2=O)cc1 (configuration not stated)	15.8 µM [falling, partial curve, poor fit]	–
O=C(Nc1cccc(S(=O)(=O)NC2=NCCC2)c1)c1cnc(Cl)c(Cl)c1	32.6 µM [falling, single point]	–
O=C(Nc1ccc(N2CCCC2)c(Cl)c1)c1cccs1	35.5 µM [falling, single point]	–
C=CC[C@@H](CC(=O)N(CCO)Cc1ccccc1)C(=O)NCCOC(=O)[C@@H](CC=C)Cc1ccc(F)cc1	29.1 µM [falling, single point]	–
O=C(CC1(O)C(=O)c2ccccc2C1=O)c1ccccc1	18.4 µM [rising, partial curve, poor fit]	–
CCOC(=O)/C=C/S(=O)(=O)c1ccc(NC(C)=O)cc1	3.98 µM [falling, full curve]	–
CCCCc1ccc(-c2ccc(Br)cc2)nc1	0.731 µM [rising, full curve]	–
Cc1ccc(C(=O)NCC2CCCO2)cc1S(=O)(=O)N1CCCCC1 (configuration not stated)	35.5 µM [rising, single point]	–
CC(=O)Oc1cc2c3c(c1)/C(=C1/SC(=S)NC1=O)C(=O)N3C(C)(C)C=C2C	0.562 µM [rising, full curve, poor fit]	–
CCn1c(Cc2ccc(OC)cc2)nnc1SCC(=O)Nc1nc2ccccc2s1	5.8 µM [falling, single point]	–
CCC(CO)n1c(SCc2cc(=O)oc3cc(C)ccc23)nc2ccccc2c1=O (configuration not stated)	2.59 µM [rising, partial curve, poor fit]	–
COc1ccc(Cl)cc1NS(=O)(=O)c1ccc2c(c1)NC(=O)CCS2	11.2 µM [falling, partial curve, poor fit]	–
Cc1ncc(CO)c(/C=N/NC(=O)c2ccc(O)cc2)c1O	0.82 µM [falling, full curve]	–
Cc1cccc(NC(=S)N(Cc2cccs2)Cc2cc3cc(C)ccc3[nH]c2=O)c1	1.64 µM [rising, full curve]	–
CCc1oc2ccccc2c1C(=O)CCN1CCCCC1	5.62 µM [falling, partial curve, poor fit]	–
COc1ccccc1NC(=O)Nc1ccc(C(N)=O)cc1	2.51 µM [falling, partial curve, poor fit]	–
O=C(N/N=C/c1ccc([N+](=O)[O-])s1)c1ccccc1Br	35.5 µM [falling, single point]	–
CC1Cc2nc(SCC(=O)Nc3ccc4c(c3)OCCO4)n(C)c(=O)c2S1 (configuration not stated)	5.8 µM [falling, full curve, poor fit]	–

A portion taken from the entries so far:
Structure (SMILES)	AC50 [1]	AC50 [2]
CC(Sc1nnc(-c2cccnc2)n1C)C(=O)N1CCOCC1 (configuration not stated)	0.259 µM [rising, full curve, poor fit]	–
COc1ccc2c(c1OC)C(=O)N1N=C(c3ccc(F)cc3)CC21 (configuration not stated)	11.2 µM [falling, partial curve]	–
CCc1ccc(C(=O)CN2C(=O)NC(C)(c3ccc(C)cc3)C2=O)cc1 (configuration not stated)	15.8 µM [falling, partial curve, poor fit]	–
O=C(Nc1cccc(S(=O)(=O)NC2=NCCC2)c1)c1cnc(Cl)c(Cl)c1	32.6 µM [falling, single point]	–
O=C(Nc1ccc(N2CCCC2)c(Cl)c1)c1cccs1	35.5 µM [falling, single point]	–

Next part:

Structure (SMILES)	AC50 [1]	AC50 [2]
C=CCn1c(=S)[nH]c2cc(C(=O)Nc3ccc(F)cc3)ccc2c1=O	0.794 µM [falling, full curve]	–
CCN1CCN(Cc2ccc(NC(=O)c3ccc(C)c(NC(=O)N4CCNC4=O)c3)cc2C(F)(F)F)CC1	17.8 µM [falling, partial curve, poor fit]	–
CC(=O)C1C(c2ccc(Cl)cc2)c2c(noc2C)CC1(C)O (configuration not stated)	35.5 µM [rising, single point]	–
CC(C)(C)c1ccc(NC(=O)COc2ccc(-n3ccnc3)cc2)cc1	0.731 µM [falling, partial curve, poor fit]	–
Cc1ccc(-c2noc(C3CCCN(C(=O)C4CCCCC4)C3)n2)o1 (configuration not stated)	4.61 µM [rising, full curve]	–
COc1ccc(-c2nc(-c3cccc(C)c3)nc(Cl)c2C#N)cc1	0.316 µM [rising, full curve, poor fit]	–
CC(Oc1ccc(Cl)cc1Cl)C(=O)NC1CCSC1=O (configuration not stated)	16.4 µM [rising, single point]	–
CCc1ccccc1NC(=O)CCCSc1nc2ccccc2s1	0.82 µM [rising, full curve, poor fit]	3.26 µM [rising, full curve]
O=C(N/N=C(\Cc1ncc[nH]1)c1ccccc1)c1ccccc1	3.16 µM [falling, partial curve, poor fit]	–
CC(=O)c1c(C)[nH]c(C(=O)OCC(=O)Nc2ccc([N+](=O)[O-])cc2Cl)c1C	2.59 µM [rising, full curve]	–
Cc1ccc2c(c1)sc1nc(-c3cc4cc(Cl)ccc4oc3=O)cn12	8.91 µM [falling, partial curve, poor fit]	–
O=C(N/N=C/c1ccc(OC(=O)c2ccccc2)cc1)c1cccc(O)c1	17.8 µM [falling, partial curve, poor fit]	–
CCOc1ccc(Oc2nc(C)cc(OC)n2)nn1	0.103 µM [rising, full curve, poor fit]	–
O=C(O)CN1C(=O)/C(=C\c2cccc(OCc3ccc(F)cc3)c2)SC1=S	31.6 µM [rising, single point]	–
Cc1ccc(N2CC(NC(=O)Cc3ccc(F)cc3)CC2=O)cc1 (configuration not stated)	7.94 µM [rising, partial curve, poor fit]	–
CCOc1cc(OCC)cc(C(=O)Nc2cccnc2)c1	14.1 µM [falling, partial curve, poor fit]	–
O=C(CSC(=S)N1CCOCC1)Nc1nccs1	11.2 µM [falling, partial curve, poor fit]	–
Cn1c(CCNC(=O)c2ccco2)nc2cc(NC(=O)C3CCCCC3)ccc21	18.4 µM [falling, single point]	–
CC(O)[C@H]1CNC(=O)C(=O)N1CCc1cccc(F)c1 (some centres not stated)	35.5 µM [falling, single point]	–
Cc1cc(C)n(-c2nc(SCCN(C)C)c3c4c(sc3n2)COC(C)(C)C4)n1	6.31 µM [falling, single point]	–
CCOc1ccc(-c2c(C(=O)N/N=C/c3ccc(OC)cc3)nnn2-c2nonc2N)cc1	4.11 µM [rising, full curve, poor fit]	–

Structure (SMILES)	AC50 [1]	AC50 [2]
CC(=O)Nc1cccc(C(=O)/C=C/c2ccco2)c1	8.91 µM [falling, partial curve, poor fit]	–
CCOc1cccc(C(=O)Nc2cccc(NC(=O)c3ccco3)c2)c1	8.91 µM [falling, partial curve, poor fit]	–
O=C(CN1C(=O)NC2(CCCC2)C1=O)Nc1ccc(Cl)c(C(F)(F)F)c1	17.8 µM [falling, partial curve, poor fit]	–
N#Cc1c2c(c(-n3cnc4ccccc43)n3c1nc1ccccc13)CCC2	0.1 µM [falling, full curve, poor fit]	–
Cc1ccc(NC(=O)CSC2=C(C#N)C(c3ccco3)C3=C(CC(C)(C)CC3=O)N2)cc1 (configuration not stated)	32.6 µM [falling, single point]	–
CCOc1ccc(OCCn2c(=S)[nH]c3ccccc32)cc1	3.16 µM [rising, full curve, poor fit]	–
O=C(O)c1cccc(NC(=S)N/N=C/c2ccccc2OCc2cccc(Br)c2)c1	35.5 µM [falling, single point]	–
COc1cc(/C=N\NC(=O)c2ccc(C)nc2)ccc1OC(=O)c1cccc(F)c1	6.31 µM [falling, single point]	–
CCOc1ccc(NC(=O)CN(C)C(=O)CSc2ccccc2)cc1OCC	1.84 µM [rising, partial curve]	–
Cc1c(Cl)cccc1NC(=O)[C@@H](NC(=O)c1ccccc1Cl)C(C)C	7.31 µM [rising, partial curve, poor fit]	–
COc1ccc2cc(CN(CC3CCCO3)C(=O)Nc3ccccc3OC)c(=O)[nH]c2c1 (configuration not stated)	35.5 µM [falling, partial curve, poor fit]	–
CCOC(=O)c1cc(C)n(Cc2ccc(OCC)c(OC)c2)c1C	0.259 µM [falling, full curve, poor fit]	–
COc1cc(SC)ccc1C(=O)OCC(=O)NCC(C)C	8.91 µM [rising, partial curve, poor fit]	–
O=C1c2ccccc2C(=O)C1(CO)c1ccc(OC(F)F)cc1	2.51 µM [falling, full curve, poor fit]	–
Cc1cccc(NC(=O)Nc2cccc(C#N)c2)n1	23.1 µM [falling, single point]	16.4 µM [rising, partial curve, poor fit]
CCOC(=O)c1[nH]c(C)c(C(=O)c2ccc(C)cc2)c1C	23.1 µM [rising, partial curve]	20.6 µM [falling, partial curve]
COc1cccc(NC(=O)c2ccc3nsnc3c2)c1	2.82 µM [falling, partial curve, poor fit]	–
Cc1ccc(F)cc1N=Cc1c(O)c2ccccc2oc1=O	3.98 µM [falling, partial curve]	–
O=C(CNC(=O)[C@@H]1Cc2ccccc2CN1)Nc1ccc2c(c1)OCCO2	2.82 µM [rising, single point]	–
COCCn1c(N)c(C(=O)NCC2CCCO2)c2nc3ccccc3nc21 (configuration not stated)	7.94 µM [falling, partial curve]	–
O=C(NNc1ncnc2c1cnn2-c1ccccc1)c1ccco1	12.6 µM [falling, partial curve]	6.31 µM [rising, full curve, poor fit]
